These are yes or no findings as the source states them, for the method shown. In cells and extracts the contact can be indirect. Some entries that bind do so weakly or less than the wild type.
Target: T1, Syndecan-1 (SDC-1), endogenous on normal murine mammary gland (NMuMG) cells (mouse (endogenous in NMuMG)) (UniProt P18828)
T1 sequence (chain, heparan sulfate (HS) chains attached to the extracellular domain): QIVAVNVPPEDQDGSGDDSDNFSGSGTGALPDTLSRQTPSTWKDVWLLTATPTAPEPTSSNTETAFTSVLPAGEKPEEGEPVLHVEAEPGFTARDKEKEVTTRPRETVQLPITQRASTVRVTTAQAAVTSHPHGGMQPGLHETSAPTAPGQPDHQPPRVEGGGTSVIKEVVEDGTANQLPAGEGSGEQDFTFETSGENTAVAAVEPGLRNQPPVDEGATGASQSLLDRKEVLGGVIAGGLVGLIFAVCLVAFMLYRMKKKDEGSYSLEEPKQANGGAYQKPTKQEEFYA
Experiment: co-IP; NMuMG cells starved 4 h, incubated with 0, 50, 100 and 150 nM recombinant mouse CXCL13 for 18 h; cell lysate (500 ug) precipitated with anti-SDC-1 antibody (5 ug) overnight at 4 C and protein A/G magnetic beads (Pierce Classic Magnetic IP/Co-IP Kit); Western blot with anti-CXCL13 or rat IgG as control; only the binder purified

B1: recombinant mouse CXCL13 (C-X-C motif chemokine ligand 13) (ligand, UniProt O55038 22-109)
chain: ILEAHYTNLKCRCSGVISTVVGLNIIDRIQVTPPGNGCPKTEVVIWTKMKKVICVNPRAKWLQRLLRHVQSKSLSSTPQAPVSKRRAA
binding: binds
